Results: the supplement of paper PMC8256030
The list shows a part of the results. Repeats in this data set agree poorly, so a single value says little.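 HEK293T cells were given each compound shortly before transfection with a reporter in which red mCherry is followed by the SARS-CoV-2 frameshift element and then GFP in the −1 frame, so GFP appears only after frameshifting.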

Test system: HEK293T
Assay: percent viability (nuclei count) relative to control; higher = more viable cells
Settings: 10 µM; 24 h

**Q.** Which percent viability does the source give for `CC(C)c1nc(N(C)S(C)(=O)=O)nc(-c2ccc(F)cc2)c1/C=C/[C@@H](O)C[C@@H](O)CC(=O)O` [rosuvastatin] here?
**A.** 173%

**Q.** How did the percent viability turn out when `COc1ccc2c(c1OC)C(=O)O[C@@H]2[C@H]1c2c(cc3c(c2OC)OCO3)CCN1C` was run?
**A.** 169%

**Q.** For `O=c1[nH]c2ccccc2c2cc(CO)nn12` [pirquinozol], which percent viability is on record?
**A.** 212%

**Q.** How did the percent viability turn out when `O=C(Nc1ncc([N+](=O)[O-])s1)c1cccs1` [tenonitrozole] was run?
**A.** 201%

**Q.** With `S=P(N1CC1)(N1CC1)N1CC1` [thiotepa] as the compound, how does the percent viability read?
**A.** 380%

**Q.** `Cc1cc2c(cc1CC(=O)c1sccc1S(=O)(=O)Nc1onc(C)c1Cl)OCO2` [Thelin] was tested. Which percent viability did it give?
**A.** 288%

**Q.** Which percent viability does the source give for `CC1(CN2CCC(n3c(=O)[nH]c4ccccc43)CC2)OCc2ccccc2-n2cccc21` (centres undefined) [zaldaride] here?
**A.** 162%

**Q.** For `CC(Cc1cccc(C(F)(F)F)c1)NCCOC(=O)c1ccccc1` (centres undefined) [benfluorex], which percent viability is on record?
**A.** 222%

**Q.** For `CC/C=C\C/C=C\C/C=C\C/C=C\C/C=C\CCCC(=O)O` [icosapent], which percent viability is on record?
**A.** 209%

**Q.** With `CCCOC(=O)c1ccc(N)cc1` [risocaine] as the compound, how does the percent viability read?
**A.** 35.1%

**Q.** How did the percent viability turn out when `C[C@H]1c2cccc(O)c2C(O)=C2C(=O)[C@]3(O)C(O)=C(C(N)=O)C(=O)[C@@H](N(C)C)[C@@H]3[C@@H](O)[C@@H]21` [doxycycline] was run?
**A.** 50.8%

**Q.** How did the percent viability turn out when `O=[N+]([O-])c1ccc(S(=O)(=O)Nc2nccs2)cc1` [nitrosulfathiazole] was run?
**A.** 229%

**Q.** For `COc1nc2ccc(Br)cc2cc1[C@@H](c1ccccc1)[C@@](O)(CCN(C)C)c1cccc2ccccc12` [Bedaquiline], which percent viability is on record?
**A.** 203%

**Q.** For `COc1cc2c3cc1Oc1cc(ccc1O)C[C@@H]1c4c(cc(OC)c(O)c4Oc4ccc(cc4)C[C@@H]3N(C)CC2)CC[N+]1(C)C` [(+)-Tubocuraraine chloride], which percent viability is on record?
**A.** 170%
